Values of other authors as cited in PMC8401933 (Molecules, 2021).

Settings: cited from earlier work

Row | Structure (SMILES) | promiscuity score [%]
1 | CN(C)c1nc2c(Br)c(Br)c(Br)c(Br)c2[nH]1 [DMAT, 2-dimethylamino-4,5,6,7-tetrabromo-1H-benzimidazole] | 48.60
2 | O=C1c2ccc(O)c(O)c2C(=O)c2c(O)ccc(O)c21 [quinalizarin, 1,2,5,8-tetrahydroxyanthraquinone] | 9.47
